Here are results for 4 compounds from patent US9878984B2, “Anti-cancer compounds” (NORTHWESTERN UNIVERSITY, priority 2008, dated 2018).

Entries after “also recorded” stand apart in the source; their conditions may differ. Some entries repeat one wording, which the source may state once for all of them.

This data set concerns HeLa cells. In words: Subcellular compound localization by epifluorescence microscopy. Type of data set: cell-based, human. The settings on record: HeLa cells treated with [GI99%] for 20 hr.
As to `CN(C)CCN1C(=O)c2cccc3c(N)ccc(c23)C1=O` [A1, 6-amino-2-[2-(dimethylamino)ethyl]-1H-benz[de]isoquinoline-1,3(2H)-dione], the subcellular localization entry is reported as “near identical to amonafide”.

As for `C=CCNc1ccc2c3c(cccc13)C(=O)N(CCN(C)C)C2=O` [A3, 6-allylamino-2-[2-(dimethylamino)ethyl]-1H-benz[de]isoquinoline-1,3(2H)-dione], the subcellular localization entry is recorded as “preferentially localizing to the nucleolus over the nucleoplasm”.

On to `COCCNc1ccc2c3c(cccc13)C(=O)N(CCN(C)C)C2=O` [A4, 6-methoxyethylamino-2-[2-(dimethylamino)ethyl]-1H-benz[de]isoquinoline-1,3(2H)-dione], for which the subcellular localization entry is on record as “preferentially localizing to the nucleolus over the nucleoplasm; also recorded: near identical sub-cellular localization to amonafide”. As to `CN(C)CCN1C(=O)c2cccc3cc(N)cc(c23)C1=O` [amonafide, reference compound], the subcellular localization entry is listed as “preferentially localizing to the nucleolus over the nucleoplasm”.
